PubChem BioAssay AID686943 – Drosophila RNAi Screening Center, 2013
Screen: 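Knockdowns that increase or decrease active ERK after insulin receptor stimulation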 (primary screen). Cell system: Drosophila S2R+ haemocyte-like cells expressing YFP-tagged ERK (Rolled). Reagent: long dsRNA against Drosophila genes. Treatment: insulin stimulation versus unstimulated cells; dose and duration not given. Measured: 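Per-plate z-scores of phospho-ERK immunostaining normalised to YFP-tagged ERK, measured with and without insulin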. Reading the numbers: replicate 1, z-score of dpERK with insulin and replicate 2, z-score of dpERK with insulin: higher = more active ERK per ERK-YFP after insulin.
In all, the deposit lists about 23,000 reagents; this is a random part of those with a known target gene and a result. 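Extra replicates exist only for a retested subset of genes; insulin dose and duration not given; both raised and lowered dpERK matter.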 The numbers tell different reagents against one gene apart. Not all columns of the deposit are shown. Not given: the amount of reagent, the time to read-out.

For CG13501, the entry reads replicate 1, z-score of dpERK with insulin -0.09; replicate 2, z-score of dpERK with insulin 0.59.
With knock-down of CG9795 the results were replicate 1, z-score of dpERK with insulin 0.66; replicate 2, z-score of dpERK with insulin 0.09.
After knock-down of CG17028, the screen gave replicate 1, z-score of dpERK with insulin 0.72; replicate 2, z-score of dpERK with insulin 0.94.
Silencing of CG31875 came out at: replicate 1, z-score of dpERK with insulin -0.7; replicate 2, z-score of dpERK with insulin -0.57.
For Dolk the deposit lists replicate 1, z-score of dpERK with insulin 0.66; replicate 2, z-score of dpERK with insulin 0.11.
Knock-down of hrg gave: replicate 1, z-score of dpERK with insulin 0.13; replicate 2, z-score of dpERK with insulin -0.48.
CG17195 gave replicate 1, z-score of dpERK with insulin -0.86; replicate 2, z-score of dpERK with insulin -0.35.
For mAChR-C the deposit lists replicate 1, z-score of dpERK with insulin -0.17; replicate 2, z-score of dpERK with insulin 0.22.
CG31140 #1 showed replicate 1, z-score of dpERK with insulin 0.37; replicate 2, z-score of dpERK with insulin 0.25.
Depletion of CG31140 #2 resulted in: replicate 1, z-score of dpERK with insulin 0.22; replicate 2, z-score of dpERK with insulin 0.91.
Knock-down of CG31140 #3 resulted in: replicate 1, z-score of dpERK with insulin -0.18; replicate 2, z-score of dpERK with insulin 0.
mask #1 scored replicate 1, z-score of dpERK with insulin 0.76; replicate 2, z-score of dpERK with insulin -0.14.
Against mask #2, the values are replicate 1, z-score of dpERK with insulin 0.52; replicate 2, z-score of dpERK with insulin 0.9.
Depletion of mask #3 gave: replicate 1, z-score of dpERK with insulin 0.22; replicate 2, z-score of dpERK with insulin -0.13.

In a second layout: entries from further up.
| Gene | reagent | replicate 1, z-score of dpERK with insulin | replicate 2, z-score of dpERK with insulin |
| --- | --- | --- | --- |
| mAChR-C | 1 | -0.17 | 0.22 |
| CG31140 | 1 | 0.37 | 0.25 |

The list goes on:
After knock-down of Obp22a, the record shows replicate 1, z-score of dpERK with insulin 0.12; replicate 2, z-score of dpERK with insulin 0.19.
Against nord #1, the entry reads replicate 1, z-score of dpERK with insulin 0.37; replicate 2, z-score of dpERK with insulin 0.45.
After knock-down of nord #2, the screen gave replicate 1, z-score of dpERK with insulin -0.63; replicate 2, z-score of dpERK with insulin -0.58.
Depletion of Taf4 resulted in: replicate 1, z-score of dpERK with insulin 0.3; replicate 2, z-score of dpERK with insulin 1.23.
Against lncRNA:CR43270 the deposit lists replicate 1, z-score of dpERK with insulin -0.39; replicate 2, z-score of dpERK with insulin 0.24.
Gr47a gave replicate 1, z-score of dpERK with insulin -0.05; replicate 2, z-score of dpERK with insulin -0.4.
For Gapdh2, the entry reads replicate 1, z-score of dpERK with insulin 1.42; replicate 2, z-score of dpERK with insulin 1.48.
